# Data as given in publication doi:10.1101/2023.02.27.530350 (bioRxiv, 2023).
# How the values were obtained:
# [1] = target: T1, WalK-LgBIT (native WalK, sensor histidine kinase) (Staphylococcus aureus) (UniProt Q2FKN7); assay: split reporter
# T1 sequence: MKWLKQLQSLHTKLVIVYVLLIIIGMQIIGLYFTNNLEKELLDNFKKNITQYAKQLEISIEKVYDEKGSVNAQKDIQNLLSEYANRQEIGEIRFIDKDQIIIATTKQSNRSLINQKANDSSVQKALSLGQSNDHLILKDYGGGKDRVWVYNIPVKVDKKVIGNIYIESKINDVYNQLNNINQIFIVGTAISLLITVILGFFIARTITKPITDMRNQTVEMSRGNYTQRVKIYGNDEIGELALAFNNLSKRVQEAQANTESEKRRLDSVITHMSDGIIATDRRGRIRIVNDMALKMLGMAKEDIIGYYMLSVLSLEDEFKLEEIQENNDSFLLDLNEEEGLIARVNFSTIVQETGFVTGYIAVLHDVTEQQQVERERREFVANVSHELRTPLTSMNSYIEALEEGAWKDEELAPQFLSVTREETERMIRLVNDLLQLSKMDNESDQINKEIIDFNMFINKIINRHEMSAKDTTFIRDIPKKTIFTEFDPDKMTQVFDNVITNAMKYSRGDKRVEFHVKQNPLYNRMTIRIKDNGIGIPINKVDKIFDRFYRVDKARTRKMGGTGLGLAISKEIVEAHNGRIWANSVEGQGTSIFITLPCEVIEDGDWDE
# [2] = target: T1, WalK-LgBIT (native WalK, sensor histidine kinase) (Staphylococcus aureus); assay: split reporter; remark: listed apart in the source
substance,measurement,setting,value
WalK_(D53A/T101A) (as printed; taken as WalR D53A/T101A-SmBIT) (from UniProt Q2FKN8),binding,[1],binds
same,binding,[2],binds

# Like-named read-outs stand apart in the source and are kept apart here. These are yes or no findings as the source states them, for the method shown. In cells and extracts the contact can be indirect. Binding can be weak; no strength is given. Tags and fused reporters may be left off the sequences shown.
